Data reported in PubChem BioAssay AID540303 (National Center for Advancing Translational Sciences (NCATS), 2011).
Hit rate of the full screen: of about 330,000 compounds, about 1,000 (0.3%) were called active. This list was built around the results that the source calls inconclusive (neither active nor inactive); the mix of calls is not that of the screen. Calls come from the whole dose curve; as a rule, active = well fitted inhibition curve with a large enough effect; inconclusive = small, poorly fitted or top-dose-only effect; inactive = no such curve, though single readings can be large or run the other way; tested in mouse RAW 264.7 cells. Potencies beside an inconclusive call are fits to weak or partial responses and may not hold up.

assay: qHTS for Inhibitors of Cell Surface uPA Generation; conditions: cell surface uPA generation assay; series mostly up to 38.3 µM; note: nearly all actives have a fitted effect of over 55% in size
Outline: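 Murine RAW 264.7 cells are treated for 24 h with compound up to 38.3 uM final. Cell ATP, measured by ATP-Lite, remains high if blocking the uPA cascade prevents LF from reaching the cytoplasm.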
Potency is the fitted concentration of half-maximal effect.

Row | SMILES | Potency
1 | Cn1nc(CC(=O)NC2CCCCCC2)c2ccccc2c1=O | inactive
2 | CCOC(=O)N1CCN(Cc2nc3cc(NC(=O)CC(C)C)ccc3n2CC)CC1 | inconclusive: 2.82 µM [inhibitor, single point]
3 | Cc1ccc(CN2CCN(CC(=O)N/N=C/c3ccccc3F)CC2)cc1 | inactive
4 | COc1ccc(-c2c[n+](CC(=O)N3c4ccccc4Sc4ccccc43)c3n2CCC3)cc1 | inactive
5 | COc1ccc(OC(=O)c2ccc(OC)c(S(=O)(=O)N3CCOCC3)c2)cc1 | inconclusive: 14.1 µM [inhibitor, single point]
6 | Nc1nc(Nc2ccc(Cl)cc2)nc2ccccc12 | inactive
7 | COc1ccccc1NC(=S)N1CCN(c2ccc(F)cc2)CC1 | inconclusive: 10 µM [inhibitor, partial curve, poor fit]
8 | CCOC(=O)N1N=C(c2ccc(C)cc2)CC1(O)C(F)(F)F (stereo unspecified) | inconclusive: 6.31 µM [inhibitor, partial curve, poor fit]
9 | Cc1cccc2cc3c(N)c(C(=O)N4CCc5ccccc54)sc3nc12 | inconclusive: 28.2 µM [inhibitor, single point]
10 | CCOc1ccc(CN2CCC(C(=O)Nc3cccc(-c4ccn[nH]4)c3)CC2)cc1Cl | inactive
11 | CC(C)(C)c1ccc(C(=O)Nc2ccc(NC(=O)c3ccco3)cc2)cc1 | inactive
12 | OCC1OC(n2cnc3c(NCc4ccco4)ncnc32)C(O)C1O (stereo unspecified) | inactive
13 | Cc1ccc(S(=O)(=O)NCc2cccnc2)cc1C(=O)NC1CCCCC1 | inconclusive: 0.794 µM [inhibitor, partial curve, poor fit]
14 | Cc1ccc(C(=O)O/N=C(\N)c2ccccn2)c(Cl)c1 | inconclusive: 1.78 µM [inhibitor, full curve, poor fit]
15 | O=C(NC1C=CS(=O)(=O)C1)c1sc2ccccc2c1Cl (stereo unspecified) | inconclusive: 8.91 µM [inhibitor, partial curve, poor fit]
16 | COC(=O)CCCC(=O)N1CCCC(N(C)CCc2ccccc2)C1 (stereo unspecified) | inconclusive: 0.01 µM [inhibitor, full curve, poor fit]
17 | Cc1ccc(N=N/C(=C\O)C(=O)c2ccncc2)cc1 | inactive
18 | Cc1ccc2nc(-c3ccccc3)cc(C(=O)N3CCc4ccccc4C3)c2c1 | inconclusive: 28.2 µM [inhibitor, single point]
19 | O=C(C1=C[C@H](C2CCCCC2)C[C@H](OCc2ccc(CO)cc2)O1)N1CCN(Cc2ccc3c(c2)OCO3)CC1 | inconclusive: 28.2 µM [inhibitor, single point]
20 | C[C@H](CO)N1C[C@H](C)[C@@H](CN(C)Cc2ccc3c(c2)OCO3)Oc2c(NC(=O)Cc3ccccc3)cccc2C1=O | inconclusive: 10 µM [inhibitor, single point]
21 | CCCC1=C/C(=C/c2ccc(-c3ccccc3OC)o2)C(=O)O1 | inactive
22 | CNc1nnc(-c2ccc(OC)cc2)s1 | inconclusive: 14.1 µM [inhibitor, partial curve, poor fit]
23 | Cc1nc(Nc2ccc(Cl)cc2)c(C#N)c(=O)[nH]1 | inconclusive: 2.82 µM [inhibitor, partial curve, poor fit]
24 | C=CCOc1ccccc1C(=O)/C=C1/C(=O)Nc2ccccc21 | inconclusive: 8.91 µM [inhibitor, partial curve, poor fit]

Row | SMILES | Potency
25 | Cc1ccc(-n2nc3c([n+]2[O-])CCc2c-3no[n+]2[O-])cc1 | inactive
26 | COc1ccc2c(c1)CCc1c-2n[nH]c1C(=O)NCCC(C)C | inconclusive: 12.6 µM [inhibitor, single point]
27 | COc1ccc(NC(=O)Cc2coc3cc(C)c(C(C)C)cc23)cc1S(=O)(=O)N1CCOCC1 | inactive
28 | CC(C)C[C@H]1CN=C(N(C)C)N1CC1CCCCCC1 | inconclusive: 5.01 µM [inhibitor, partial curve, poor fit]
29 | COc1cccc(/C=N/NC(=O)c2ccc([N+](=O)[O-])cc2Cl)c1O | inactive
30 | COc1ccc(-n2cc(CNCCCN3CCCC3=O)c(-c3ccccc3Cl)n2)cc1 | inactive
31 | CC(C)c1nc(SCC(=O)Nc2ccc(N(C)C)cc2)c2ccccc2n1 | inconclusive: 7.94 µM [inhibitor, partial curve]
32 | COc1ccc(NC(=O)Nc2cccc3c2O[C@H](CN(C)S(C)(=O)=O)[C@@H](C)CN([C@H](C)CO)C3=O)cc1 | inconclusive: 12.6 µM [inhibitor, single point]
33 | O=C(Nc1cc(S(=O)(=O)N2CCOCC2)ccc1N1CCCC1)c1ccc2c(c1)S(=O)(=O)c1ccccc1C2=O | inactive
34 | O=C(CSc1nc2ncc(Cl)cc2[nH]1)N1CCOCC1 | inactive
35 | N=c1c2c(-c3ccccc3)c(-c3ccccc3)oc2ncn1CCN1CCOCC1 | inactive
36 | COc1cccc(C2CC(c3ccccc3OC)n3ncnc3N2)c1 (stereo unspecified) | inconclusive: 28.2 µM [inhibitor, single point]
37 | Clc1cccc(Nc2ncnc3c2cnn3-c2ccccc2)c1 | inconclusive: 28.2 µM [inhibitor, single point]
38 | N#Cc1ccc(N2CCCNCC2)nc1 | inconclusive: 1 µM [inhibitor, single point]
39 | CC(C)(C)c1ccc(C(=O)Nc2cnccn2)cc1 | inconclusive: 3.98 µM [inhibitor, partial curve]
40 | O=C(NC1CC1)c1ccc2c(Cl)c3c(nc2c1)CCCC3 | inconclusive: 10 µM [inhibitor, partial curve, poor fit]
41 | Cc1ccc(-c2nc(CN3CCN(C(=O)C4CCCO4)CC3)cs2)cc1 (stereo unspecified) | inconclusive: 12.6 µM [inhibitor, single point]
42 | CC(=O)n1cc([C@H]2C=C(C(=O)N3CCN(Cc4ccccc4)CC3)O[C@@H](OCc3ccc(CO)cc3)C2)c2ccccc21 | inconclusive: 7.94 µM [inhibitor, partial curve, poor fit]
43 | O=C(Nc1cccc(S(=O)(=O)N2CCCCCC2)c1)c1ccc2ccccc2n1 | inactive
44 | COc1ccc(C2=Nn3c(nnc3-c3ccccc3OC)SC2)cc1OC1CCOC1 (stereo unspecified) | inconclusive: 2 µM [inhibitor, full curve, poor fit]
45 | CCS(=O)(=O)c1nc(S(=O)(=O)c2ccc(C)cc2)c(N2CCCC(C)C2)s1 (stereo unspecified) | inactive
46 | CC(C)c1ccc(C2c3[nH]c4ccccc4c3C[C@H]3C(=O)N(c4ccccc4C(=O)N4CCC[C@@H]4C(=O)O)C(=O)N23)cc1 (stereo partly specified) | inactive
47 | CCN(CC)CCOCCOc1ccc(Cl)c2ccccc12 | inconclusive: 11.2 µM [inhibitor, partial curve, poor fit]
48 | Cc1ccc(/C=N/NC(=O)c2ccncc2)cc1 | inactive

Row | SMILES | Potency
49 | CCOC(=O)/C(C#N)=C/Nc1ccccc1OC | inactive
50 | O=C1CC(c2ccccc2)Cc2nc3ncnn3cc21 (stereo unspecified) | inconclusive: 5.62 µM [inhibitor, full curve, poor fit]
51 | CCC(C)C1C(C#N)=C(N)Oc2n[nH]c(-c3ccccc3)c21 (stereo unspecified) | inconclusive: 7.94 µM [inhibitor, single point]
52 | Cn1c(SCC(=O)NCc2cccs2)nnc1-c1ccc(O)cc1 | inactive
53 | O=C(O/N=C1\C(=O)N(c2ccccc2)c2ccccc21)C1CC1 | inactive
54 | COC(C[C@@H](O)C[C@@H](O)COCc1ccccc1)OC | inactive
55 | O=c1[nH]c(=S)ccn1C1OC(CO)C(O)C1O (stereo unspecified) | inconclusive: 2 µM [inhibitor, full curve]
56 | O=C(CSc1nncs1)Nc1cc(S(=O)(=O)N2CCOCC2)ccc1N1CCCC1 | inactive
57 | NC(=O)/C=C\C(=O)Nc1cccc(C(F)(F)F)c1 | inconclusive: 3.55 µM [inhibitor, partial curve, poor fit]
58 | COC(=O)[C@]1(Cc2ccccc2)N[C@H](c2ccc(SC3CCCCC3)c(OC)c2)[C@@H]2C(=O)N(C)C(=O)[C@@H]21 | inconclusive: 7.08 µM [inhibitor, partial curve]
59 | Cc1ccsc1C(=O)NCCc1nnc2ccccn12 | inconclusive: 12.6 µM [inhibitor, single point]
60 | O=C(Nc1nc2ccccc2n1CCN1CCCCC1)c1ccco1 | inactive
61 | N#CCSc1ncnc2ccccc12 | inconclusive: 10 µM [inhibitor, partial curve, poor fit]
62 | CN(C)/C=C/C(=O)c1ccc(-n2cccc2)cc1 | inconclusive: 11.2 µM [inhibitor, single point]
63 | Cc1c(C(=O)N2CCN(S(=O)(=O)c3ccccc3)CC2)oc2ccccc12 | inactive
64 | NC(=O)c1cc(S(=O)(=O)NCCc2ccc(S(N)(=O)=O)cc2)cs1 | inconclusive: 12.6 µM [inhibitor, single point]
65 | O=C(O)c1ccc(N/N=C/c2ccc(-c3ccc(Cl)cc3Cl)o2)cc1 | inconclusive: 10 µM [inhibitor, single point]
66 | CCCCN1CN(Cc2ccccc2)CNC1=S | inactive
67 | COC(=O)Cn1cc([N+](=O)[O-])nc1C | inactive
68 | Cc1c(C(=O)Nc2ccccc2F)cnn1-c1ccccc1 | inconclusive: 10 µM [inhibitor, single point]
69 | COc1cc(-c2noc(C)c2C#Cc2nccn2C)cc(OC)c1OC | inconclusive: 8.91 µM [inhibitor, partial curve]
70 | Cc1ccc(NC(=O)c2ccccc2OCC(=O)Nc2ccccc2F)cc1S(=O)(=O)N(C)C | inconclusive: 20 µM [inhibitor, partial curve, poor fit]
71 | CCC/C=C1/CCCOC(C(=O)NCc2ccc(C)o2)(C(F)(F)F)C1 (stereo unspecified) | inconclusive: 8.91 µM [inhibitor, partial curve, poor fit]

Part of the list above in order of formula weight, high to low:
Row | SMILES | Potency
65 | O=C(O)c1ccc(N/N=C/c2ccc(-c3ccc(Cl)cc3Cl)o2)cc1 | inconclusive: 10 µM [inhibitor, single point]
52 | Cn1c(SCC(=O)NCc2cccs2)nnc1-c1ccc(O)cc1 | inactive
68 | Cc1c(C(=O)Nc2ccccc2F)cnn1-c1ccccc1 | inconclusive: 10 µM [inhibitor, single point]
